Experimental findings from patent US20180217132, “MEASUREMENT METHOD AND MEASUREMENT DEVICE” (KYOCERA CORPORATION, published 2018) are described below.

The subject of series [1] is Hemoglobin A1c (HbA1c, glycated hemoglobin). The experiment in a line: SPR. The following applies: 2'-F at A and U, purified native protein.
The test system of the next series is Hemoglobin A0 (HbA0). The experiment in a line: SPR. Conditions: 2'-F at A and U; Biacore T200, HBS-P + 1 mM MgCl2 pH 7.4; method of Kd not explicitly stated; purified native protein.

For part of these data: A negative result means that nothing was seen under these conditions. For at least one entry, the source does not settle the construct or the ends of the probe.

Consider “GGGAUAGGAUCCACAUCUACGUAUUACGGCAUUAUUAGGACCAAUGCUGAGUACGGCGCACAGCUUUUUUCACUGCAGACUUGACGAAGCUUAAAAAAAAAAAAAAAAAA [RNA aptamer A]”, for which the binding result in series [1] (not bound at all or extremely low binding, HBS-P + 1 mM MgCl2) was “no binding”.
As a reminder, the Kd is a measure of binding affinity in units of concentration. Consider “GGGAUAGGAUCCACAUCUACGUAUUAGAUUAGGACCAAUACGUGGUUGGCCCCCCCUCAACGACGCAGUUCACUGCAGACUUGACGAAGCUUAAAAAAAAAAAAAAAAAA [RNA aptamer B]”, for which the Kd amounted to 50 nM in series [1] (Biacore T200, HBS-P + 1 mM MgCl2 pH 7.4, method of Kd not explicitly stated) and 1000 nM in the series on Hemoglobin A0 (HbA0).
